Experimental data taken from PMC12806394.
These are yes or no findings as the source states them, for the method shown. In cells and extracts the contact can be indirect. Some entries that bind do so weakly or less than the wild type.

By UniProt entry, the sequences of proteins in these tests, tags left out.
UniProt P39748: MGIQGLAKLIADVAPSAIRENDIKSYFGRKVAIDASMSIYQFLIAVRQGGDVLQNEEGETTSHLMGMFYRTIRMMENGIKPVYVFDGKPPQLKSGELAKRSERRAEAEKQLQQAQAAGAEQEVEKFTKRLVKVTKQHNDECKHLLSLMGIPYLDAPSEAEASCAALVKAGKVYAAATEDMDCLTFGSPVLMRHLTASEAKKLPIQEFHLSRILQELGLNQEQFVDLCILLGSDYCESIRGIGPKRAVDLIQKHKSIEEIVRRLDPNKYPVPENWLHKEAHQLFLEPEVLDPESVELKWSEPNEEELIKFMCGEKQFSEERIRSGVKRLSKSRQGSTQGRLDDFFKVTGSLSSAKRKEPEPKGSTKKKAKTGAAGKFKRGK

B1: RAD1 (protein, UniProt O60671 1-282)
chain: MPLLTQQIQDEDDQYSLVASLDNVRNLSTILKAIHFREHATCFATKNGIKVTVENAKCVQANAFIQAGIFQEFKVQEESVTFRINLTVLLDCLSIFGSSPMPGTLTALRMCYQGYGYPLMLFLEEGGVVTVCKINTQEPEETLDFDFCSTNVINKIILQSEGLREAFSELDMTSEVLQITMSPDKPYFRLSTFGNAGSSHLDYPKDSDLMEAFHCNQTQVNRYKISLLKPSTKALVLSCKVSIRTDNRGFLSLQYMIRNEDGQICFVEYYCCPDEEVPESES
B2: RAD9A (protein, UniProt Q99638 1-391)
chain: MKCLVTGGNVKVLGKAVHSLSRIGDELYLEPLEDGLSLRTVNSSRSAYACFLFAPLFFQQYQAATPGQDLLRCKILMKSFLSVFRSLAMLEKTVEKCCISLNGRSSRLVVQLHCKFGVRKTHNLSFQDCESLQAVFDPASCPHMLRAPARVLGEAVLPFSPALAEVTLGIGRGRRVILRSYHEEEADSTAKAMVTEMCLGEEDFQQLQAQEGVAITFCLKEFRGLLSFAESANLNLSIHFDAPGRPAIFTIKDSLLDGHFVLATLSDTDSHSQDLGSPERHQPVPQLQAHSTPHPDDFANDDIDSYMIAMETTIGNEGSRVLPSISLSPGPQPPKSPGPHSEEEDEAEPSTVPGTPPPKKFRSLFFGSILAPVRSPQGPSPVLAEDSEGEG
B3: HUS1 (protein, UniProt O60921 1-280)
chain: MKFRAKIVDGACLNHFTRISNMIAKLAKTCTLRISPDKLNFILCDKLANGGVSMWCELEQENFFNEFQMEGVSAENNEIYLELTSENLSRALKTAQNARALKIKLTNKHFPCLTVSVELLSMSSSSRIVTHDIPIKVIPRKLWKDLQEPVVPDPDVSIYLPVLKTMKSVVEKMKNISNHLVIEANLDGELNLKIETELVCVTTHFKDLGNPPLASESTHEDRNVEHMAEVHIDIRKLLQFLAGQQVNPTKALCNIVNNKMVHFDLLHEDVSLQYFIPALS

The binders below were run against FEN1, wild type, overexpressed from plasmid (UniProt P39748) (assay: co-IP; 293T cells overexpressing the FEN1 plasmid, with or without Oxamate (50 mM, 24 h); whole cell extracts; immunoblot).

binding, binds:
B1, B2, B3
